Consider 1 molecule from article PMC3637451.

Sequences of proteins named here, by UniProt entry; tags and fusion partners are left off.
UniProt Q62406: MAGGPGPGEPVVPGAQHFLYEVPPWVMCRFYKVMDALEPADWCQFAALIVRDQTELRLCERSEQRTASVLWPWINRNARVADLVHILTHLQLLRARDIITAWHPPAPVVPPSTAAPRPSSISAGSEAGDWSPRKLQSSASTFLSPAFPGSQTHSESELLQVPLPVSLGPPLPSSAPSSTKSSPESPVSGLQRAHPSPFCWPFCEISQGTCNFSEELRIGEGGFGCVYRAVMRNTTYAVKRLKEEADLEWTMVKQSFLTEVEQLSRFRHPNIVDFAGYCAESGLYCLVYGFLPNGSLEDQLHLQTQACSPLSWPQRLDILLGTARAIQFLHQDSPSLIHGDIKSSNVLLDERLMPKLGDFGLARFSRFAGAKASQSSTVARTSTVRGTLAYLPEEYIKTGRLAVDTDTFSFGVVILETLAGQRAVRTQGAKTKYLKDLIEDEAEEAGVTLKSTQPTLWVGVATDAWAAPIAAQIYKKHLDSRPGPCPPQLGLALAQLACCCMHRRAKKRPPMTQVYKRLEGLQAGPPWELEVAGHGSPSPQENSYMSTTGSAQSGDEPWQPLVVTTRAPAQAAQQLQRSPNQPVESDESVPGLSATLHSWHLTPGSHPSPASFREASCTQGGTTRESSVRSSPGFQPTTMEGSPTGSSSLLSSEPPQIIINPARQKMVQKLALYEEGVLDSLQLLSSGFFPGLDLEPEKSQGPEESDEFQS

Results are given in words; binding and its absence hold for the method and conditions named. Binding seen in cells or lysates may run through a third protein. Some binding calls cover weakened binding; strength is not graded here.

The target in the assay is Interleukin-1 receptor-associated kinase 1 (mouse (endogenous in BMDC)) (UniProt Q62406). The experiment in a line: co-IP; IRAK1 antibody (or its agarose conjugate) on lysates of mouse BMDC treated with 100 ng/ml sMLA or sDLA for the indicated times; lysis in 50 mM Tris HCl pH 7.4, 100 mM NaCl, 1 mM EDTA, 50 mM NaF with 1% digitonin or 0.2% NP-40; blots probed for TRAF6 and IRAK1.

B1: TNF receptor-associated factor 6 (protein, UniProt P70196 1-530)
chain: MSLLNCENSCGSSQSSSDCCAAMAASCSAAVKDDSVSGSASTGNLSSSFMEEIQGYDVEFDPPLESKYECPICLMALREAVQTPCGHRFCKACIIKSIRDAGHKCPVDNEILLENQLFPDNFAKREILSLTVKCPNKGCLQKMELRHLEDHQVHCEFALVNCPQCQRPFQKCQVNTHIIEDCPRRQVSCVNCAVSMAYEEKEIHDQSCPLANIICEYCGTILIREQMPNHYDLDCPTAPIPCTFSVFGCHEKMQRNHLARHLQENTQLHMRLLAQAVHNVNLALRPCDAASPSRGCRPEDPNYEETIKQLESRLVRQDHQIRELTAKMETQSMYVGELKRTIRTLEDKVAEMEAQQCNGIYIWKIGNFGMHLKSQEEERPVVIHSPGFYTGRPGYKLCMRLHLQLPTAQRCANYISLFVHTMQGEYDSHLPWPFQGTIRLTILDQSEALIRQNHEEVMDAKPELLAFQRPTIPRNPKGFGYVTFMHLEALRQGTFIKDDTLLVRCEVSTRFDMGGLRKEGFQPRSTDAGV
Turning to B1, the binding entry is reported as “binds”.
